Measurements taken from article PMC12804375.

T1: tripartite motif containing 47 (human (endogenous in HuCCT1)), Q96LD4
T1 chain: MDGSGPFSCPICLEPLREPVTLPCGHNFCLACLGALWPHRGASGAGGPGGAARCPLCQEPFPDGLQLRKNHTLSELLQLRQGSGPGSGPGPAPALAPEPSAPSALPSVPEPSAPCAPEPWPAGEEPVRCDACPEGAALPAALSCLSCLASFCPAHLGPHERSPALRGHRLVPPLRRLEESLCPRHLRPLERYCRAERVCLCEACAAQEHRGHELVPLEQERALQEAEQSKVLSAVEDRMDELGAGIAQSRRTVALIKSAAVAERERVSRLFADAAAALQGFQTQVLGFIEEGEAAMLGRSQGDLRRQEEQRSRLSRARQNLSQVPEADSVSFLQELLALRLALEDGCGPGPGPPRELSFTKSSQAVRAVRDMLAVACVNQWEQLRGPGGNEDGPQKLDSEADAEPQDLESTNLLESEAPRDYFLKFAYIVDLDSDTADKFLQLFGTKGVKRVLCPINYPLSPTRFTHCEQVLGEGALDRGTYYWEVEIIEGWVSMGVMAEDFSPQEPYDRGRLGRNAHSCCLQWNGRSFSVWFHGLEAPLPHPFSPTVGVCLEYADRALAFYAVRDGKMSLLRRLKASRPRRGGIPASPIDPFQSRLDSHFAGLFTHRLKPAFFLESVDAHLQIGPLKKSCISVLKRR


Columns and labels:
[1] = target: tripartite motif containing 47 (human (endogenous in HuCCT1)) (UniProt Q96LD4); experiment: affinity purification with mass spectrometry; co-IP from HuCCT1 total protein with TRIM47 antibodies and Protein A/G-agarose beads; IP buffer 20 mM Tris pH 8.0, 150 mM NaCl, 1 mM EDTA, PMSF; SDS-PAGE, trypsin, LC-MS (Q Exactive HF-X); candidates at Log2FC >1 and p <0.05
[2] = target: T1, tripartite motif containing 47 (human …); experiment: as above; details: remark: other sources report otherwise

| Binder | binding [1] | binding [2] |
| --- | --- | --- |
| PDHB (enzyme, UniProt P11177 31-359) LQVTVRDAINQGMDEELERDEKVFLLGEEVAQYDGAYKVSRGLWKKYGDKRIIDTPISEMGFAGIAVGAAMAGLRPICEFMTFNFSMQAIDQVINSAAKTYYMSGGLQPVPIVFRGPNGASAGVAAQHSQCFAAWYGHCPGLKVVSPWNSEDAKGLIKSAIRDNNPVVVLENELMYGVPFEFPPEAQSKDFLIPIGKAKIERQGTHITVVSHSRPVGHCLEAAAVLSKEGVECEVINMRTIRPMDMETIEASVMKTNHLVTVEGGWPQFGVGAEICARIMEGPAFNFLDAPAVRVTGADVPMPYAKILEDNSIPQVKDIIFAIKKTLNI | binds | – |
| PC, P11498 21-1178 (enzyme) TAPAASPNVRRLEYKPIKKVMVANRGEIAIRVFRACTELGIRTVAIYSEQDTGQMHRQKADEAYLIGRGLAPVQAYLHIPDIIKVAKENNVDAVHPGYGFLSERADFAQACQDAGVRFIGPSPEVVRKMGDKVEARAIAIAAGVPVVPGTDAPITSLHEAHEFSNTYGFPIIFKAAYGGGGRGMRVVHSYEELEENYTRAYSEALAAFGNGALFVEKFIEKPRHIEVQILGDQYGNILHLYERDCSIQRRHQKVVEIAPAAHLDPQLRTRLTSDSVKLAKQVGYENAGTVEFLVDRHGKHYFIEVNSRLQVEHTVTEEITDVDLVHAQIHVAEGRSLPDLGLRQENIRINGCAIQCRVTTEDPARSFQPDTGRIEVFRSGEGMGIRLDNASAFQGAVISPHYDSLLVKVIAHGKDHPTAATKMSRALAEFRVRGVKTNIAFLQNVLNNQQFLAGTVDTQFIDENPELFQLRPAQNRAQKLLHYLGHVMVNGPTTPIPVKASPSPTDPVVPAVPIGPPPAGFRDILLREGPEGFARAVRNHPGLLLMDTTFRDAHQSLLATRVRTHDLKKIAPYVAHNFSKLFSMENWGGATFDVAMRFLYECPWRRLQELRELIPNIPFQMLLRGANAVGYTNYPDNVVFKFCEVAKENGMDVFRVFDSLNYLPNMLLGMEAAGSAGGVVEAAISYTGDVADPSRTKYSLQYYMGLAEELVRAGTHILCIKDMAGLLKPTACTMLVSSLRDRFPDLPLHIHTHDTSGAGVAAMLACAQAGADVVDVAADSMSGMTSQPSMGALVACTRGTPLDTEVPMERVFDYSEYWEGARGLYAAFDCTATMKSGNSDVYENEIPGGQYTNLHFQAHSMGLGSKFKEVKKAYVEANQMLGDLIKVTPSSKIVGDLAQFMVQNGLSRAEAEAQAEELSFPRSVVEFLQGYIGVPHGGFPEPFRSKVLKDLPRVEGRPGASLPPLDLQALEKELVDRHGEEVTPEDVLSAAMYPDVFAHFKDFTATFGPLDSLNTRLFLQGPKIAEEFEVELERGKTLHIKALAVSDLNRAGQRQVFFELNGQLRSILVKDTQAMKEMHFHPKALKDVKGQIGAPMPGKVIDIKVVAGAKVAKGQPLCVLSAMKMETVVTSPMEGTVRKVHVTKDMTLEGDDLILEIE | – | binds |
| MDH1 (enzyme, UniProt P40925 1-334) MSEPIRVLVTGAAGQIAYSLLYSIGNGSVFGKDQPIILVLLDITPMMGVLDGVLMELQDCALPLLKDVIATDKEDVAFKDLDVAILVGSMPRREGMERKDLLKANVKIFKSQGAALDKYAKKSVKVIVVGNPANTNCLTASKSAPSIPKENFSCLTRLDHNRAKAQIALKLGVTANDVKNVIIWGNHSSTQYPDVNHAKVKLQGKEVGVYEALKDDSWLKGEFVTTVQQRGAAVIKARKLSSAMSAAKAICDHVRDIWFGTPEGEFVSMGVISDGNSYGVPDDLLYSFPVVIKNKTWKFVEGLPINDFSREKMDLTAKELTEEKESAFEFLSSA | binds | – |
| DLD (enzyme, UniProt P09622 36-509) ADQPIDADVTVIGSGPGGYVAAIKAAQLGFKTVCIEKNETLGGTCLNVGCIPSKALLNNSHYYHMAHGKDFASRGIEMSEVRLNLDKMMEQKSTAVKALTGGIAHLFKQNKVVHVNGYGKITGKNQVTATKADGGTQVIDTKNILIATGSEVTPFPGITIDEDTIVSSTGALSLKKVPEKMVVIGAGVIGVELGSVWQRLGADVTAVEFLGHVGGVGIDMEISKNFQRILQKQGFKFKLNTKVTGATKKSDGKIDVSIEAASGGKAEVITCDVLLVCIGRRPFTKNLGLEELGIELDPRGRIPVNTRFQTKIPNIYAIGDVVAGPMLAHKAEDEGIICVEGMAGGAVHIDYNCVPSVIYTHPEVAWVGKSEEQLKEEGIEYKVGKFPFAANSRAKTNADTDGMVKILGQKSTDRVLGAHILGPGAGEMVNEAALALEYGASCEDIARVCHAHPTLSEAFREANLAASFGKSINF | binds | – |
| DLAT (enzyme, UniProt P10515 87-647) SLPPHQKVPLPSLSPTMQAGTIARWEKKEGDKINEGDLIAEVETDKATVGFESLEECYMAKILVAEGTRDVPIGAIICITVGKPEDIEAFKNYTLDSSAAPTPQAAPAPTPAATASPPTPSAQAPGSSYPPHMQVLLPALSPTMTMGTVQRWEKKVGEKLSEGDLLAEIETDKATIGFEVQEEGYLAKILVPEGTRDVPLGTPLCIIVEKEADISAFADYRPTEVTDLKPQVPPPTPPPVAAVPPTPQPLAPTPSAPCPATPAGPKGRVFVSPLAKKLAVEKGIDLTQVKGTGPDGRITKKDIDSFVPSKVAPAPAAVVPPTGPGMAPVPTGVFTDIPISNIRRVIAQRLMQSKQTIPHYYLSIDVNMGEVLLVRKELNKILEGRSKISVNDFIIKASALACLKVPEANSSWMDTVIRQNHVVDVSVAVSTPAGLITPIVFNAHIKGVETIANDVVSLATKAREGKLQPHEFQGGTFTISNLGMFGIKNFSAIINPPQACILAIGASEDKLVPADNEKGFDVASMMSVTLSCDHRVVDGAVGAQWLAEFRKYLEKPITMLL | binds | – |

No constants are given. Whether binding was seen depends on the method and setting. In cells and extracts the contact can be indirect. These calls come from enrichment with a bait or labelling near it, and not all partners need be listed.
